Measured values: patent US4129648A, “Method for reducing endogenous prostaglandin synthesis” (priority 1977, dated 1978)

System: bronchoconstriction induced by sodium arachidonate
Assay: Dynamic compliance and airway resistance in the anaesthetized guinea pig challenged with sodium arachidonate
Format: in vivo
Settings: dose 3.85 mg/kg intravenously
Experimental: The ability of Cohn subfraction IV4 and haptoglobin to reduce the transient hypertension caused by administration of sodium arachidonate in the guinea pig was also measured. These tests were carried out as follows.
Male albino guinea pigs weighing 400-600 g each (Dunkin Hartley strain) were anesthetized by administration of sodium pentobarbitone, 60 mg/kg intraperitoneally. The trachea was cannulated for artificial ventilation by a Starling pump (5-8 ml at 72 strokes per minute) via a Fleisch 0000 pneumatachograph. The difference in pressure across this device was measured with a Grass differential pressure transducer. […] Transpulmonary pressure (TPP) was measured with another differential pressure transducer via side arms to the thoracic cavity and the tracheal cannula. The signals for low and TPP were applied to the analogue computer so that there was approximately 180° phase difference. The computer derived the dynamic compliance and resistance from the in-going signals. Drugs were administered intravenously via the external jugular vein. A 1 mg/ml solution of sodium arachidonate was prepared as follows. […] These doses were given at 30 minute intervals to produce a large but submaximal bronchoconstriction. After 2 or 3 similar responses to the same dose of sodium arachidonate had been obtained, the test substance in saline (0.1 to 1 ml) was injected intravenously. At various times thereafter, a challenge was given.

[1] = challenge 10 min after treatment
[2] = challenge 30 min after treatment
[3] = challenge 60 min after treatment
[4] = challenge 90 min after treatment
[5] = challenge 120 min after treatment
[6] = challenge 150 min after treatment
[7] = challenge 180 min after treatment

C[C@@H]1C[C@H]2[C@@H]3CCC4=CC(=O)C=C[C@]4(C)[C@@]3(F)[C@@H](O)C[C@]2(C)[C@@]1(O)C(=O)COP(=O)(O)O [Dexamethasone, dexamethasone sodium phosphate]
Mean % Inhibition (± s.e.) of educed dynamic lung compliance [1]: 35.0 ± 7.6% | Mean % Inhibition (± s.e.) of increased airway resistance [1]: 45.3 ± 12.2% | Mean % Inhibition (± s.e.) of educed dynamic lung compliance [2]: 55.0 ± 5.0% | Mean % Inhibition (± s.e.) of increased airway resistance [2]: 65.0 ± 7.0% | Mean % Inhibition (± s.e.) of educed dynamic lung compliance [3]: 57.0% | Mean % Inhibition (± s.e.) of increased airway resistance [3]: 50.0% | Mean % Inhibition (± s.e.) of educed dynamic lung compliance [4]: 54.0% | Mean % Inhibition (± s.e.) of increased airway resistance [4]: 33.0% | Mean % Inhibition (± s.e.) of educed dynamic lung compliance [5]: 43.0% | Mean % Inhibition (± s.e.) of increased airway resistance [5]: 25.0% | Mean % Inhibition (± s.e.) of educed dynamic lung compliance [6]: 34.0% | Mean % Inhibition (± s.e.) of increased airway resistance [6]: 17.0% | Mean % Inhibition (± s.e.) of educed dynamic lung compliance [7]: 37.0% | Mean % Inhibition (± s.e.) of increased airway resistance [7]: 8.0%
